These are yes or no findings as the source states them, for the method shown. Binding can be weak; no strength is given.
Target: Partially purified CD36 (CD36 fraction) from human platelets, immobilized (human) (UniProt P16671)
Experiment: cytoadherence inhibition: immobilized CD36 pretreated with peptide, bound IEs counted

Protein sequences, listed by entry. Tags and fused reporters are not part of them. Lines headed by an entry give the natural chain unless they say otherwise; changes in a name come on top.
UniProt P16671: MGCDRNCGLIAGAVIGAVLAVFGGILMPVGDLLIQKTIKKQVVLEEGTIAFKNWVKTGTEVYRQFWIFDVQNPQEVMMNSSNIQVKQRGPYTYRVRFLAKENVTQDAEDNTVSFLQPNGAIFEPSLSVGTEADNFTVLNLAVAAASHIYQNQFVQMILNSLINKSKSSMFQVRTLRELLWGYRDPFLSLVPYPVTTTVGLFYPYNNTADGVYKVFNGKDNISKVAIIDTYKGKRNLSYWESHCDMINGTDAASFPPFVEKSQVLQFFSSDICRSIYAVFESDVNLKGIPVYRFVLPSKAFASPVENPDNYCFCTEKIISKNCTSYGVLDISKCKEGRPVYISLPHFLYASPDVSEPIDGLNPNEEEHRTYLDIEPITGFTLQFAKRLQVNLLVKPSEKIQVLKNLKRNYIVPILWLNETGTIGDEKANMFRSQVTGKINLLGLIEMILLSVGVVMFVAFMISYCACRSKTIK

YETFSKLIKIFQDH [DBR peptide (peptide derived from the DIDS binding region of human AE1)]
binding: binds

Source: patent US20050059588A1, “Peptides which generate antibodies resulting in lysis of pathologically adherent erythrocytes” (REGENTS OF THE UNIVERSITY OF CALIFORNIA, priority 2003, published 2005)
